Some of the results follow. These are further read-outs of the screen, such as a control signal, another cell line or another target. No call is given for them. Most of these compounds were active or inconclusive in the main read-out, so they are no random draw. Potencies come from curve fits of mixed quality, noted in brackets.
Assay: qHTS Assay to Find Inhibitors of Chronic Active B-Cell Receptor Signaling
Details: ABC-DLBCL IkBa-CBG/CBR reporter, luminescence ratio (green luciferase fused to IkBa over red control in TMD8 lymphoma cells), 4 h
In short: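 Compounds up to 46 uM were incubated four hours with TMD8 cells whose green CBG68 luciferase is fused to IkappaBalpha; red CBR luminescence normalised the signal, and concentration-effect curves were fitted to fusion, red and ratio data.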

[1] = measured here: CBR red luminescence, cell number
[2] = measured here: IkBa-CBG green luminescence

Structure (SMILES) | AC50 [1] | AC50 [2]
Cc1ccc(Nc2cccccc2=O)cc1 | 8.91 µM [rising, partial curve, poor fit] | 
O=C(CSc1nnc(Nc2ccccc2F)s1)Nc1cccc(S(=O)(=O)N2CCCCC2)c1 | 18.4 µM [falling, single point] | 
Cc1cc(/C=N/NC(N)=S)c(C)n1-c1ccc(Cl)c(Cl)c1 | 23.1 µM [falling, single point] | 18.4 µM [falling, single point]
O=C(Nc1nnc(-c2ccc(F)cc2)s1)c1ccco1 | 1.12 µM [falling, full curve, poor fit] | 
CCS(=O)(=O)C(=C1Nc2ccccc2N1)S(=O)(=O)CC | 29.1 µM [rising, partial curve, poor fit] | 
O=C(N/N=C\c1cccc(OC(=O)c2ccco2)c1)c1ccc2c(c1)OCO2 | 1.3 µM [falling, full curve] | 
Cc1c(C(=O)Nc2cccc([N+](=O)[O-])c2)cnn1-c1ccccc1 | 1 µM [rising, partial curve, poor fit] | 
COc1ccccc1NC(=O)COC(=O)c1c[nH]c(=O)[nH]c1=O | 6.31 µM [rising, single point] | 
CC(C)(C)C1C/C(=C/c2ccccn2)C(=O)/C(=C/c2ccccn2)C1 (stereo unspecified) | 7.94 µM [rising, partial curve, poor fit] | 
Clc1cccc(Cl)c1CON/C=N/c1ncnc2sccc12 | 1.64 µM [rising, full curve, poor fit] | 
COc1ccc(OCC(=O)Nc2cccc(C(C)=O)c2)cc1 | 0.316 µM [rising, full curve, poor fit] | 
O=C(NCc1ccccc1CN1CCCC1)c1cc2cc(Cl)ccc2o1 | 14.6 µM [falling, single point] | 
Cc1ccc(S(=O)(=O)N2CCCCC2)cc1C(=O)NCc1ccccn1 | 1.26 µM [rising, partial curve, poor fit] | 
Cc1cc(C(=O)OCC(=O)Nc2cccc(S(=O)(=O)N3CCOCC3)c2)c(C)o1 | 16.4 µM [falling, partial curve, poor fit] | 
Cc1ccc2nc(Cl)c(/C=N/NC(=O)c3ccccc3O)cc2c1 | 8.2 µM [falling, partial curve, poor fit] | 
COc1ccc(C2CC(c3ccc(Cl)cc3)=NN2c2ccc(S(N)(=O)=O)cc2)cc1 (stereo unspecified) | 9.2 µM [falling, partial curve] | 
CCCCNC(=O)c1onc(CSc2ccc(F)cc2)c1C(=O)O | 35.5 µM [falling, single point] | 
COCCCn1c(C(=O)NCCC2=CCCCC2)cc2c(=O)n3ccccc3nc21 | 15.8 µM [rising, single point] | 
CCn1c(=O)c2sccc2n(Cc2cc(C(=O)OC)ccc2OC)c1=O | 10 µM [rising, partial curve, poor fit] | 
O=C(Cc1ccc([N+](=O)[O-])cc1)NNC(=O)c1ccc2c(c1)OCO2 | 3.16 µM [falling, full curve] | 
Cc1coc2cc3oc(=O)c(Cc4ccccc4)c(C)c3cc12 | 18.4 µM [falling, single point] | 

Some of the entries above in another layout:
Structure (SMILES)	AC50 [1]	AC50 [2]
Cc1cc(C(=O)OCC(=O)Nc2cccc(S(=O)(=O)N3CCOCC3)c2)c(C)o1	16.4 µM [falling, partial curve, poor fit]	
Cc1ccc2nc(Cl)c(/C=N/NC(=O)c3ccccc3O)cc2c1	8.2 µM [falling, partial curve, poor fit]	
COc1ccc(C2CC(c3ccc(Cl)cc3)=NN2c2ccc(S(N)(=O)=O)cc2)cc1 (stereo unspecified)	9.2 µM [falling, partial curve]	
CCCCNC(=O)c1onc(CSc2ccc(F)cc2)c1C(=O)O	35.5 µM [falling, single point]	
COCCCn1c(C(=O)NCCC2=CCCCC2)cc2c(=O)n3ccccc3nc21	15.8 µM [rising, single point]	

Going on with the list:

Structure (SMILES) | AC50 [1] | AC50 [2]
COCCNc1ncnc2c1c(-c1ccccc1)cn2-c1cccc(Cl)c1 | 0.1 µM [rising, full curve, poor fit] | 
N=c1c(-c2nc3ccccc3[nH]2)cc(C(=O)c2cccs2)nn1-c1ccccc1 | 0.00461 µM [falling, full curve, poor fit] | 
COc1ccc2c(c1)C(NC(C)=O)C(=O)N2CCc1ccccc1 (stereo unspecified) | 35.5 µM [rising, single point] | 
CC(C)N=C(NS(=O)(=O)c1ccccc1)C(Cl)(Cl)Cl |  | 4.11 µM [falling, full curve]
CC(C)(C)c1ccc(-c2noc(CCC(=O)N3CCOCC3)n2)cc1 | 35.5 µM [falling, single point] | 
Cc1c(CCC(=O)N2CCC[C@H]2C(=O)O)c(=O)oc2c(C)c3oc4c(c3cc12)CCCC4 | 31.6 µM [falling, single point] | 0.282 µM [falling, full curve, poor fit]
O=S(=O)(N/N=C\c1cccn1-c1ccccc1)c1ccc2ccccc2c1 | 35.5 µM [falling, single point] | 
Cc1cc(/C=N/NS(=O)(=O)c2ccc(F)c(Cl)c2)no1 | 5.62 µM [rising, single point] | 
Cn1nnc(NC(=O)c2ccccc2F)n1 | 35.5 µM [falling, single point] | 
CN(C)/C=C/c1onc(-c2ccccc2Cl)c1C#N | 8.91 µM [rising, partial curve, poor fit] | 
Cc1ccc(NC(=O)C(NS(=O)(=O)c2cccc3nsnc23)C(C)C)nc1 (stereo unspecified) | 29.1 µM [falling, single point] | 
COc1cccc(NC(=S)N/N=C2/CCCCc3ccccc32)c1 | 6.51 µM [rising, partial curve] | 
CCCCn1c(CN(C)Cc2ccccc2)nc2c1c(=O)n(C)c(=O)n2C | 29.1 µM [falling, single point] | 
COc1cccc(NC(=O)CCNC(=O)Cn2ccc3ccccc3c2=O)c1 | 6.51 µM [falling, single point] | 
c1ccc(COc2ccc(OCCN3CCCCC3)cc2)cc1 | 5.17 µM [rising, full curve, poor fit] | 
CCCCN(C)C(=O)c1cc2c(s1)-c1ccccc1S(=O)(=O)C2 | 10 µM [rising, partial curve] | 
O=C(Nc1nc2c(s1)CCCC2)c1ccc(Br)s1 | 8.91 µM [falling, partial curve] | 
O=C1CC(c2ccc(Cl)cc2)N=C(NC(=O)c2ccccc2)N1 (stereo unspecified) | 2.51 µM [rising, full curve] | 
CC1CCC(C(C)C)C(OC(=O)Cn2c(-c3ccc(F)cc3)[n+](C)c3ccccc32)C1 (stereo unspecified) | 18.4 µM [falling, single point] | 
Cc1cccc(-c2nc(CS(=O)CC(=O)N3CCN(C)CC3)c(C)o2)c1 (stereo unspecified) | 32.6 µM [falling, single point] | 
CC(C)Oc1ccc(C(=O)Nc2ccc(Cl)c(S(=O)(=O)Nc3ccc(Cl)cc3)c2)cc1 | 29.1 µM [falling, single point] | 

Structure (SMILES) | AC50 [1] | AC50 [2]
COc1ccc(CNC(=O)C/C(C)=N/NC(=O)C23CC4CC(CC(C4)C2)C3)cc1 | 4.47 µM [rising, single point] | 
COc1ccc(CCNC(=O)COC(=O)c2cc3ccccc3oc2=O)cc1OC | 1.3 µM [rising, partial curve, poor fit] | 
O=c1oc2ccccc2c(Nc2ccc(Cl)cc2)c1[N+](=O)[O-] | 20 µM [falling, single point] | 15.8 µM [rising, partial curve, poor fit]
COc1cc([C@@H]2c3cc4c(cc3[C@@H](NC3CCN(Cc5ccccc5)CC3)[C@H]3COC(=O)[C@H]23)OCO4)cc(OC)c1O | 25.1 µM [rising, single point] | 
Nc1ccccc1SC1CC(=O)N(c2ccccc2Cl)C1=O (stereo unspecified) | 2 µM [rising, partial curve, poor fit] | 
Cc1ccc(F)cc1NC(=O)N1CCN(C2c3ccccc3-c3ccccc32)CC1 | 10 µM [falling, partial curve] | 
Cc1cccc(CS(=O)(=O)c2ncc(Cl)c(C(=O)NCc3ccccc3)n2)c1 | 11.2 µM [falling, partial curve, poor fit] | 
COC(=O)CNC(=O)Cc1c(C)n(C(=O)c2ccc(Cl)cc2)c2ccc(OC)cc12 | 35.5 µM [falling, single point] | 
COc1cccc(CN(C)CC(=O)Nc2sc3c(c2C#N)CCC3)c1OC | 5.62 µM [rising, single point] | 
Nc1cc(=O)[nH]c(SCC(=O)Nc2ccc(F)c(Cl)c2)n1 | 5.17 µM [falling, single point] | 
O=C(Nc1ccccc1)C1=C(N2CCOCC2)/C(=C/c2cccnc2)CC1 | 32.6 µM [falling, single point] | 
CC1=NC(=O)C(N=Nc2ccccc2C(=O)O)N1c1ccccc1 (stereo unspecified) | 14.1 µM [falling, partial curve] | 
O=C(Oc1ccccc1)c1ccccc1OS(=O)(=O)c1ccccc1 | 29.1 µM [rising, single point] | 
O=c1[nH]c(CN2CCCCC2)nc2ccccc12 | 10 µM [falling, partial curve, poor fit] | 
CCn1cc(CN2CCCC(C(=O)Nc3ccc(-c4cscn4)cc3)C2)cn1 (stereo unspecified) | 14.1 µM [falling, single point] | 
COC(=O)c1c(C)nc(C)c(C(=O)OC)c1-c1ccc(OC)cc1 | 14.1 µM [falling, partial curve, poor fit] | 
CC(=O)Nc1ccc(S(=O)(=O)NNC(=O)c2cc3c4ccccc4n(C)c3s2)cc1 | 15.8 µM [falling, partial curve, poor fit] | 
CCc1cc2c(CN3CCN(CCO)CC3)cc(=O)oc2cc1O | 29.1 µM [falling, single point] | 18.4 µM [rising, partial curve, poor fit]
CCOC(=O)/C(=C\c1ccc(OC)c(OC)c1)C(=O)c1cccnc1 | 5.01 µM [falling, partial curve, poor fit] | 
CCOC(=O)C1CCN(C(=O)c2cc3c(OC)c(OC)c(OC)cc3[nH]2)CC1 | 25.1 µM [falling, single point] | 

— PubChem BioAssay AID493014 (National Center for Advancing Translational Sciences (NCATS), 2011)
